Assay results taken from patent US9888688B2, “Tetrazolinone compounds and applications thereof” (Sumitomo Chemical Company, Limited, priority 2013, dated 2018).
Some of these results come from one statement about several compounds together.

What was measured:
Format in all cases: in vivo
[1] = test system: wheat leaf blotch fungus (Septoria tritici); assay: Wheat leaf blotch control test, spray before inoculation (Test Examples 6, 9, 10, Comparative Test Example); details: wheat APOGEE, inoculated after 4 days
[2] = test system: cucumber corynespora leaf spot fungus (Corynespora cassicola); assay: Cucumber corynespora leaf spot control test (Test Examples 26, 27); details: cucumber SAGAMI HANJIRO, inoculated after one day, 7 days
[3] = test system: barley scald fungus (Rhynchosporium secalis); assay: Barley scald control test, foliar spray on barley (Test Examples 20, 21); details: 200 ppm foliar spray, barley NISHINOHOSHI, inoculated after 2 days
[4] = test system: wheat leaf blotch fungus (Septoria tritici); assay: Wheat leaf blotch control test, spray after inoculation (Test Example 8); details: 200 ppm foliar spray 3 days after inoculation, wheat APOGEE
[5] = test system: kidney bean stem rot fungus (Sclerotinia sclerotiorum); assay: Kidney bean stem rot control test, foliar spray on kidney bean (Test Examples 5, 22, 23); details: kidney bean NAGAUZURA NATANE, four days after inoculation
[6] = test system: cucumber anthracnose fungus (Colletotrichum lagenarium); assay: Cucumber anthracnose control test (Test Examples 28, 29); details: cucumber SAGAMI HANJIRO, inoculated after one day
[7] = test system: barley net blotch fungus (Pyrenophora teres); assay: Barley net blotch control test, foliar spray on barley (Test Examples 4, 16, 17, 18); details: barley NISHINOHOSHI, inoculated after 2 days

Measured: area of lesion spots relative to that on an untreated plant

Cc1cc(OCc2c(C)cccc2-n2nnn(C)c2=O)c(F)cc1-c1cccc(Cl)n1 [Present Compound 189]
≤ 30%: [1]; 200 ppm foliar spray | [1]; 500 ppm foliar spray | [2]; 200 ppm foliar spray | [3] | [4] | [5]; 200 ppm foliar spray | [5]; 500 ppm foliar spray | [6]; 200 ppm foliar spray | [7]; 200 ppm foliar spray | [7]; 500 ppm foliar spray

Cc1cccc(-c2ccc(OCc3c(Cl)cccc3-n3nnn(C)c3=O)c(C)c2)n1 [Present Compound 54]
≤ 30%: [1]; 200 ppm foliar spray | [1]; 500 ppm foliar spray | [2]; 200 ppm foliar spray | [3] | [4] | [5]; 200 ppm foliar spray | [5]; 500 ppm foliar spray | [6]; 50 ppm foliar spray | [7]; 200 ppm foliar spray | [7]; 500 ppm foliar spray

Cc1cc(-c2cccc(Cl)n2)c(C)cc1OCc1c(Cl)cccc1-n1nnn(C)c1=O [Present Compound 176]
≤ 30%: [1]; 200 ppm foliar spray | [1]; 500 ppm foliar spray | [2]; 200 ppm foliar spray | [3] | [4] | [5]; 200 ppm foliar spray | [5]; 500 ppm foliar spray | [6]; 200 ppm foliar spray | [7]; 200 ppm foliar spray | [7]; 500 ppm foliar spray

CCc1cccc(-n2nnn(C)c2=O)c1COc1ccc(-c2cccc(C)n2)cc1C(F)(F)F [Present Compound 128]
≤ 30%: [1]; 200 ppm foliar spray | [1]; 500 ppm foliar spray | [2]; 50 ppm foliar spray | [3] | [4] | [5]; 200 ppm foliar spray | [5]; 500 ppm foliar spray | [6]; 200 ppm foliar spray | [7]; 200 ppm foliar spray | [7]; 500 ppm foliar spray

CCc1cccc(-c2ccc(OCc3c(C)cccc3-n3nnn(C)c3=O)c(C(F)(F)F)c2)n1 [Present Compound 131]
≤ 30%: [1]; 200 ppm foliar spray | [1]; 500 ppm foliar spray | [2]; 200 ppm foliar spray | [3] | [4] | [5]; 200 ppm foliar spray | [5]; 500 ppm foliar spray | [6]; 200 ppm foliar spray | [7]; 200 ppm foliar spray | [7]; 500 ppm foliar spray

Cc1cc(-c2ccccn2)c(F)cc1OCc1c(C)cccc1-n1nnn(C)c1=O [Present Compound 194]
≤ 30%: [1]; 200 ppm foliar spray | [1]; 500 ppm foliar spray | [2]; 200 ppm foliar spray | [3] | [4] | [5]; 200 ppm foliar spray | [5]; 500 ppm foliar spray | [6]; 200 ppm foliar spray | [7]; 200 ppm foliar spray | [7]; 500 ppm foliar spray

Cc1cc(-c2ncccc2F)c(C)cc1OCc1c(C)cccc1-n1nnn(C)c1=O [Present Compound 179]
≤ 30%: [1]; 200 ppm foliar spray | [1]; 500 ppm foliar spray | [2]; 200 ppm foliar spray | [3] | [4] | [5]; 200 ppm foliar spray | [5]; 500 ppm foliar spray | [6]; 200 ppm foliar spray | [7]; 200 ppm foliar spray | [7]; 500 ppm foliar spray

CCc1cccc(-n2nnn(C)c2=O)c1COc1ccc(-c2ccc(C)nc2)cc1C [Present Compound 72]
≤ 30%: [1]; 200 ppm foliar spray | [1]; 500 ppm foliar spray | [2]; 200 ppm foliar spray | [3] | [4] | [5]; 200 ppm foliar spray | [5]; 500 ppm foliar spray | [6]; 50 ppm foliar spray | [7]; 200 ppm foliar spray | [7]; 500 ppm foliar spray

Cc1cc(-c2cnccn2)ccc1OCc1c(C)cccc1-n1nnn(C)c1=O [Present Compound 99]
≤ 30%: [1]; 200 ppm foliar spray | [1]; 500 ppm foliar spray | [2]; 200 ppm foliar spray | [3] | [4] | [5]; 200 ppm foliar spray | [5]; 500 ppm foliar spray | [6]; 200 ppm foliar spray | [7]; 200 ppm foliar spray | [7]; 500 ppm foliar spray

Cc1cc(-c2cccc(C#N)n2)ccc1OCc1c(C)cccc1-n1nnn(C)c1=O [Present Compound 114, 1-{3-methyl-2-[2-methyl-4-(6-cyanopyridin-2-yl)-phenoxymethyl]-phenyl}-4-methyl-1,4-dihydrotetrazol-5-one]
≤ 30%: [1]; 200 ppm foliar spray | [1]; 500 ppm foliar spray | [2]; 200 ppm foliar spray | [3] | [4] | [5]; 200 ppm foliar spray | [5]; 500 ppm foliar spray | [6]; 200 ppm foliar spray | [7]; 200 ppm foliar spray | [7]; 500 ppm foliar spray

Cc1ccnc(-c2ccc(OCc3ccccc3-n3nnn(C)c3=O)c(C)c2)c1 [Present Compound 1, 1-{2-[2-methyl-4-(4-methylpyridin-2-yl)-phenoxymethyl]phenyl}-4-methyl-1,4-dihydrotetrazol-5-one]
≤ 30%: [1]; 200 ppm foliar spray | [1]; 500 ppm foliar spray | [2]; 200 ppm foliar spray | [3] | [4] | [5]; 200 ppm foliar spray | [5]; 500 ppm foliar spray | [6]; 200 ppm foliar spray | [7]; 200 ppm foliar spray | [7]; 500 ppm foliar spray

Cc1cc(-c2cccnc2)ccc1OCc1c(C2CC2)cccc1-n1nnn(C)c1=O [Present Compound 64]
≤ 30%: [1]; 200 ppm foliar spray | [1]; 500 ppm foliar spray | [2]; 200 ppm foliar spray | [3] | [4] | [5]; 200 ppm foliar spray | [5]; 500 ppm foliar spray | [6]; 200 ppm foliar spray | [7]; 200 ppm foliar spray | [7]; 500 ppm foliar spray

CCc1ccnc(-c2ccc(OCc3c(Cl)cccc3-n3nnn(C)c3=O)c(C)c2)n1 [Present Compound 140]
≤ 30%: [1]; 200 ppm foliar spray | [1]; 500 ppm foliar spray | [2]; 200 ppm foliar spray | [3] | [4] | [5]; 200 ppm foliar spray | [5]; 500 ppm foliar spray | [6]; 50 ppm foliar spray | [7]; 200 ppm foliar spray | [7]; 500 ppm foliar spray

CCc1cccc(-n2nnn(C)c2=O)c1COc1ccc(-c2nccc(C)n2)cc1C(F)(F)F [Present Compound 138]
≤ 30%: [1]; 200 ppm foliar spray | [1]; 500 ppm foliar spray | [2]; 200 ppm foliar spray | [3] | [4] | [5]; 200 ppm foliar spray | [5]; 500 ppm foliar spray | [6]; 200 ppm foliar spray | [7]; 200 ppm foliar spray | [7]; 500 ppm foliar spray
